{
  "source": "the supplement of paper PMC11438910",
  "experiment_in_all_cases": "fluorescence intensity of antibody binding to polysaccharide-coupled beads; higher = stronger binding",
  "key": {"[1]": {"molecular_target": "pneumococcal polysaccharide Pn41A"}, "[2]": {"molecular_target": "pneumococcal polysaccharide Pn41F"}, "[3]": {"molecular_target": "pneumococcal polysaccharide Pn42"}, "[4]": {"molecular_target": "pneumococcal polysaccharide Pn43"}, "[5]": {"molecular_target": "pneumococcal polysaccharide Pn44"}, "[6]": {"molecular_target": "pneumococcal polysaccharide Pn45"}, "[7]": {"molecular_target": "pneumococcal polysaccharide Pn46"}, "[8]": {"molecular_target": "pneumococcal polysaccharide Pn47A"}, "[9]": {"molecular_target": "pneumococcal polysaccharide Pn47F"}, "[10]": {"molecular_target": "pneumococcal polysaccharide Pn48"}, "[11]": {"molecular_target": "pneumococcal polysaccharide Pn5"}, "[12]": {"molecular_target": "pneumococcal polysaccharide Pn6A"}, "[13]": {"conditions": "antibody concentration 2.8593 ng/mL"}, "[14]": {"conditions": "antibody concentration 15.2894 ng/mL"}, "[15]": {"conditions": "antibody concentration 81.7561 ng/mL"}, "[16]": {"conditions": "antibody concentration 437.17 ng/mL"}, "[17]": {"conditions": "antibody concentration 2337.65 ng/mL"}, "[18]": {"conditions": "antibody concentration 12500 ng/mL"}, "[19]": {"conditions": "antibody concentration 0.1 ng/mL"}, "[20]": {"conditions": "antibody concentration 0.534724 ng/mL"}},
  "note": "The list shows a part of the results. Most of these values are background signal.",
  "data": [
    {"binder": "4-127.1 (protein) chain 1: QVQLQESGPGLVKPSETLSLTCAVSDYSINTGHGWTWIRQPPGKGLEWIGYIGGSSGSPNYNPSLKSRVTISKDTSKNELSLKLNSVTAADTAVYYCARRIPADRSGNDFWGQGVLVTVSS chain 2: QSVLTQPPSVSGDPGQRVTISCTGSSSNIGGFYGYWYQQFPGTAPKLLIYDNNKRPSGISDRFSGSKSGTSASLTITGLQPGDEADYYCGSWDSSLSAHVFGSGTKLTVL", "values": [
      {"measurement": "fluorescence intensity", "setting": "[1]; [13]", "result": 24, "unit": "MFI"},
      {"measurement": "fluorescence intensity", "setting": "[1]; [14]", "result": 24, "unit": "MFI"},
      {"measurement": "fluorescence intensity", "setting": "[1]; [15]", "result": 22.5, "unit": "MFI"},
      {"measurement": "fluorescence intensity", "setting": "[1]; [16]", "result": 22.2, "unit": "MFI"},
      {"measurement": "fluorescence intensity", "setting": "[1]; [17]", "result": 25.8, "unit": "MFI"},
      {"measurement": "fluorescence intensity", "setting": "[1]; [18]", "result": 28, "unit": "MFI"},
      {"measurement": "fluorescence intensity", "setting": "[2]; [19]", "result": 12, "unit": "MFI"},
      {"measurement": "fluorescence intensity", "setting": "[2]; [20]", "result": 12, "unit": "MFI"},
      {"measurement": "fluorescence intensity", "setting": "[2]; [13]", "result": 12, "unit": "MFI"},
      {"measurement": "fluorescence intensity", "setting": "[2]; [14]", "result": 12, "unit": "MFI"},
      {"measurement": "fluorescence intensity", "setting": "[2]; [15]", "result": 12.2, "unit": "MFI"},
      {"measurement": "fluorescence intensity", "setting": "[2]; [16]", "result": 13, "unit": "MFI"},
      {"measurement": "fluorescence intensity", "setting": "[2]; [17]", "result": 15.5, "unit": "MFI"},
      {"measurement": "fluorescence intensity", "setting": "[2]; [18]", "result": 20.5, "unit": "MFI"},
      {"measurement": "fluorescence intensity", "setting": "[3]; [19]", "result": 11.5, "unit": "MFI"},
      {"measurement": "fluorescence intensity", "setting": "[3]; [20]", "result": 12, "unit": "MFI"},
      {"measurement": "fluorescence intensity", "setting": "[3]; [13]", "result": 12, "unit": "MFI"},
      {"measurement": "fluorescence intensity", "setting": "[3]; [14]", "result": 12.5, "unit": "MFI"},
      {"measurement": "fluorescence intensity", "setting": "[3]; [15]", "result": 12, "unit": "MFI"},
      {"measurement": "fluorescence intensity", "setting": "[3]; [16]", "result": 11.8, "unit": "MFI"},
      {"measurement": "fluorescence intensity", "setting": "[3]; [17]", "result": 13.5, "unit": "MFI"},
      {"measurement": "fluorescence intensity", "setting": "[3]; [18]", "result": 21.8, "unit": "MFI"},
      {"measurement": "fluorescence intensity", "setting": "[4]; [19]", "result": 15, "unit": "MFI"},
      {"measurement": "fluorescence intensity", "setting": "[4]; [20]", "result": 15.8, "unit": "MFI"},
      {"measurement": "fluorescence intensity", "setting": "[4]; [13]", "result": 15.5, "unit": "MFI"},
      {"measurement": "fluorescence intensity", "setting": "[4]; [14]", "result": 15.5, "unit": "MFI"},
      {"measurement": "fluorescence intensity", "setting": "[4]; [15]", "result": 14.8, "unit": "MFI"},
      {"measurement": "fluorescence intensity", "setting": "[4]; [16]", "result": 17.5, "unit": "MFI"},
      {"measurement": "fluorescence intensity", "setting": "[4]; [17]", "result": 23, "unit": "MFI"},
      {"measurement": "fluorescence intensity", "setting": "[4]; [18]", "result": 89.5, "unit": "MFI"},
      {"measurement": "fluorescence intensity", "setting": "[5]; [19]", "result": 25, "unit": "MFI"},
      {"measurement": "fluorescence intensity", "setting": "[5]; [20]", "result": 26, "unit": "MFI"},
      {"measurement": "fluorescence intensity", "setting": "[5]; [13]", "result": 23, "unit": "MFI"},
      {"measurement": "fluorescence intensity", "setting": "[5]; [14]", "result": 25.2, "unit": "MFI"},
      {"measurement": "fluorescence intensity", "setting": "[5]; [15]", "result": 26.5, "unit": "MFI"},
      {"measurement": "fluorescence intensity", "setting": "[5]; [16]", "result": 25.5, "unit": "MFI"},
      {"measurement": "fluorescence intensity", "setting": "[5]; [17]", "result": 30, "unit": "MFI"},
      {"measurement": "fluorescence intensity", "setting": "[5]; [18]", "result": 32.5, "unit": "MFI"},
      {"measurement": "fluorescence intensity", "setting": "[6]; [19]", "result": 10.5, "unit": "MFI"},
      {"measurement": "fluorescence intensity", "setting": "[6]; [20]", "result": 11, "unit": "MFI"},
      {"measurement": "fluorescence intensity", "setting": "[6]; [13]", "result": 11, "unit": "MFI"},
      {"measurement": "fluorescence intensity", "setting": "[6]; [14]", "result": 11, "unit": "MFI"},
      {"measurement": "fluorescence intensity", "setting": "[6]; [15]", "result": 10, "unit": "MFI"},
      {"measurement": "fluorescence intensity", "setting": "[6]; [16]", "result": 10.2, "unit": "MFI"},
      {"measurement": "fluorescence intensity", "setting": "[6]; [17]", "result": 14.8, "unit": "MFI"},
      {"measurement": "fluorescence intensity", "setting": "[6]; [18]", "result": 16.8, "unit": "MFI"},
      {"measurement": "fluorescence intensity", "setting": "[7]; [19]", "result": 23.8, "unit": "MFI"},
      {"measurement": "fluorescence intensity", "setting": "[7]; [20]", "result": 23.8, "unit": "MFI"},
      {"measurement": "fluorescence intensity", "setting": "[7]; [13]", "result": 22.8, "unit": "MFI"},
      {"measurement": "fluorescence intensity", "setting": "[7]; [14]", "result": 24.5, "unit": "MFI"},
      {"measurement": "fluorescence intensity", "setting": "[7]; [15]", "result": 25, "unit": "MFI"},
      {"measurement": "fluorescence intensity", "setting": "[7]; [16]", "result": 25.5, "unit": "MFI"},
      {"measurement": "fluorescence intensity", "setting": "[7]; [17]", "result": 27.2, "unit": "MFI"},
      {"measurement": "fluorescence intensity", "setting": "[7]; [18]", "result": 47, "unit": "MFI"},
      {"measurement": "fluorescence intensity", "setting": "[8]; [19]", "result": 14.5, "unit": "MFI"},
      {"measurement": "fluorescence intensity", "setting": "[8]; [20]", "result": 16.5, "unit": "MFI"},
      {"measurement": "fluorescence intensity", "setting": "[8]; [13]", "result": 15, "unit": "MFI"},
      {"measurement": "fluorescence intensity", "setting": "[8]; [14]", "result": 17, "unit": "MFI"},
      {"measurement": "fluorescence intensity", "setting": "[8]; [15]", "result": 16.5, "unit": "MFI"},
      {"measurement": "fluorescence intensity", "setting": "[8]; [16]", "result": 15.5, "unit": "MFI"},
      {"measurement": "fluorescence intensity", "setting": "[8]; [17]", "result": 15.5, "unit": "MFI"},
      {"measurement": "fluorescence intensity", "setting": "[8]; [18]", "result": 21, "unit": "MFI"},
      {"measurement": "fluorescence intensity", "setting": "[9]; [19]", "result": 11.5, "unit": "MFI"},
      {"measurement": "fluorescence intensity", "setting": "[9]; [20]", "result": 11.5, "unit": "MFI"},
      {"measurement": "fluorescence intensity", "setting": "[9]; [13]", "result": 13, "unit": "MFI"},
      {"measurement": "fluorescence intensity", "setting": "[9]; [14]", "result": 12, "unit": "MFI"},
      {"measurement": "fluorescence intensity", "setting": "[9]; [15]", "result": 12, "unit": "MFI"},
      {"measurement": "fluorescence intensity", "setting": "[9]; [16]", "result": 11.5, "unit": "MFI"},
      {"measurement": "fluorescence intensity", "setting": "[9]; [17]", "result": 14.2, "unit": "MFI"},
      {"measurement": "fluorescence intensity", "setting": "[9]; [18]", "result": 32.5, "unit": "MFI"},
      {"measurement": "fluorescence intensity", "setting": "[10]; [19]", "result": 19.5, "unit": "MFI"},
      {"measurement": "fluorescence intensity", "setting": "[10]; [20]", "result": 21.5, "unit": "MFI"},
      {"measurement": "fluorescence intensity", "setting": "[10]; [13]", "result": 21, "unit": "MFI"},
      {"measurement": "fluorescence intensity", "setting": "[10]; [14]", "result": 22.8, "unit": "MFI"},
      {"measurement": "fluorescence intensity", "setting": "[10]; [15]", "result": 22, "unit": "MFI"},
      {"measurement": "fluorescence intensity", "setting": "[10]; [16]", "result": 22, "unit": "MFI"},
      {"measurement": "fluorescence intensity", "setting": "[10]; [17]", "result": 31, "unit": "MFI"},
      {"measurement": "fluorescence intensity", "setting": "[10]; [18]", "result": 50.5, "unit": "MFI"},
      {"measurement": "fluorescence intensity", "setting": "[11]; [19]", "result": 8.5, "unit": "MFI"},
      {"measurement": "fluorescence intensity", "setting": "[11]; [20]", "result": 8.5, "unit": "MFI"},
      {"measurement": "fluorescence intensity", "setting": "[11]; [13]", "result": 10, "unit": "MFI"},
      {"measurement": "fluorescence intensity", "setting": "[11]; [14]", "result": 8, "unit": "MFI"},
      {"measurement": "fluorescence intensity", "setting": "[11]; [15]", "result": 8.5, "unit": "MFI"},
      {"measurement": "fluorescence intensity", "setting": "[11]; [16]", "result": 10, "unit": "MFI"},
      {"measurement": "fluorescence intensity", "setting": "[11]; [17]", "result": 12.5, "unit": "MFI"},
      {"measurement": "fluorescence intensity", "setting": "[11]; [18]", "result": 34.5, "unit": "MFI"},
      {"measurement": "fluorescence intensity", "setting": "[12]; [19]", "result": 20.8, "unit": "MFI"},
      {"measurement": "fluorescence intensity", "setting": "[12]; [20]", "result": 20.8, "unit": "MFI"},
      {"measurement": "fluorescence intensity", "setting": "[12]; [13]", "result": 20.5, "unit": "MFI"},
      {"measurement": "fluorescence intensity", "setting": "[12]; [14]", "result": 21.2, "unit": "MFI"}
    ]}
  ]
}
